Literature values in patent US7659078B1, “Method and kit for determination of prostacyclin in plasma” (University of Kentucky Research Foundation, priority 2002, dated 2010).

Conditions: in plasma; cited from earlier work

## CCCCC[C@H](O)/C=C/[C@@H]1[C@H]2C/C(=C/CCCC(=O)O)O[C@H]2C[C@H]1O [Prostacyclin]
  half-life: 1 h
